Results deposited as PubChem BioAssay AID1224826 (NIAID, 2016)
The whole screen tested about 17,000 reagents; this is an unselected part. About 1,110 of all reagents (6.6%) count as active. 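Active means lowered or raised reporter signal; replicate intensities are raw and not normalised per plate.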 Unmarked entries are inactive. Some reagents were tested in more than one well and are listed for each. Not all columns of the deposit are shown.

Screen: 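Regulators of Tlr4 signalling leading to Tnf-alpha expression in macrophages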 (primary screen)
System: RAW264.7 G9 macrophages from mouse bearing reporters for p65 (GFP) and the Tnf promoter (mCherry)
Reagent: siRNA pool against mouse genes, 100 nM
Duration: 16 h of LPS stimulation, after 2 days of siRNA transfection
Challenge: bacterial lipopolysaccharide (Salmonella minnesota R595), 10 ng/ml
Read-out: 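Imaged Tnf reporter mCherry in nuclei, minus background, normalised per plate to the median and expressed as robust z-scores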
Reading the numbers: Tnf reporter robust z-score: higher = stronger Tnf promoter reporter signal after LPS
Active means: 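a well counts as active at a score of -1.3 or below (Tlr4 knock-down control median) or above 3 (raised signal); controls and wells holding fewer than 50 cells are excluded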
Calls: active = Tnf reporter clearly lowered or raised; inactive = no clear change in Tnf reporter

| Target gene | Tnf reporter robust z-score | fewer than 50 cells in well |
| --- | --- | --- |
| Dgat2 | 1.58 | enough cells in well |
| Fahd1 | 1.84 | enough cells in well |
| Cntfr | -0.67 | enough cells in well |
| Ech1 | -0.35 | enough cells in well |
| Hfe | 2.35 | enough cells in well |
| Sf3a3 | -1.45 (active) | enough cells in well |
| Eif2ak1 | -0.16 | enough cells in well |
| Plk1 | – | fewer than 50 cells per well; well left out of calls |
| Pck2 | 0.89 | enough cells in well |
| Pck2 | – | fewer than 50 cells per well; well left out of calls |
| D3Ertd751e | 0.67 | enough cells in well |
| Dffa | 3 | enough cells in well |
| Sprr2b | -0.35 | enough cells in well |
| Cadm1 | -1.58 (active) | enough cells in well |
| Capstert | 1.88 | enough cells in well |
| 4931406H21Rik | – | fewer than 50 cells per well; well left out of calls |
| Slc36a1 | – | fewer than 50 cells per well; well left out of calls |
| Pyroxd1 | -0.85 | enough cells in well |
| BC005624 | 0.55 | enough cells in well |

Targets above whose target name starts with E or e:
| Target gene | Tnf reporter robust z-score | fewer than 50 cells in well |
| --- | --- | --- |
| Ech1 | -0.35 | enough cells in well |
| Eif2ak1 | -0.16 | enough cells in well |

Additional records follow:
| Target gene | Tnf reporter robust z-score | fewer than 50 cells in well |
| --- | --- | --- |
| Mcm6 | -0.33 | enough cells in well |
| Spink5 | -1.31 (active) | enough cells in well |
| Rpgrip1l | 1.19 | enough cells in well |
| Prkdc | 0.01 | enough cells in well |
| Phactr4 | 0.92 | enough cells in well |
| Angptl6 | -0.13 | enough cells in well |
| Or6c217 | – | fewer than 50 cells per well; well left out of calls |
| Hoxd11 | 0.22 | enough cells in well |
| Cldn10 | 0.08 | enough cells in well |
| Or5a3 | 0.35 | enough cells in well |
| Mrpl58 | 1.34 | enough cells in well |
| Pars2 | -2.03 (active) | enough cells in well |
| BC048671 | 0.05 | enough cells in well |
| Cdh20 | -0.16 | enough cells in well |
| Bmpr1a | -0.68 | enough cells in well |
| A230059G12Rik | -0.47 | enough cells in well |
| Hipk2 | -1.65 (active) | enough cells in well |
| Cops8 | -0.13 | enough cells in well |
| Pnpla8 | 0.38 | enough cells in well |
| Spa17 | -0.88 | enough cells in well |
| Stk32c | – | fewer than 50 cells per well; well left out of calls |
